Test results taken from the NIST ThermoML archive (doi:10.1021/acs.jced.5b00944).
± gives the expanded uncertainty stated by the source.

Conditions: 333.15 K; 100 kPa; Liquid; Vibrating tube method

- mass density: 983.19 ± 0.14 kg/m3
Structure (SMILES): O [water]
